This experiment has as its target GFP-NleL (enterohemorrhagic Escherichia coli). The experiment is described as follows: co-IP; cells (HEK293T) transiently expressing GFP constructs; anti-GFP IP (Chromotek), IP lysis buffer 10 mM Tris-HCl pH 7.5, 100 mM KCl, 2 mM MgCl2, 0.5% NP-40, 2 h at 4 °C; immunoblot for endogenous TRIM56 and TRIM65.

Results are given in words; binding and its absence hold for the method and conditions named. In cells and extracts the contact can be indirect.

The values below come from PMC5241803, “Structural basis for the recognition and degradation of host TRIM proteins by Salmonella effector SopA” (Nature Communications, 2017).

B1: endogenous TRIM65 (protein, UniProt Q6PJ69 1-517)
chain: MAAQLLEEKLTCAICLGLYQDPVTLPCGHNFCGACIRDWWDRCGKACPECREPFPDGAELRRNVALSGVLEVVRAGPARDPGPDPGPGPDPAARCPRHGRPLELFCRTEGRCVCSVCTVRECRLHERALLDAERLKREAQLRASLEVTQQQATQAEGQLLELRKQSSQIQNSACILASWVSGKFSSLLQALEIQHTTALRSIEVAKTQALAQARDEEQRLRVHLEAVARHGCRIRELLEQVDEQTFLQESQLLQPPGPLGPLTPLQWDEDQQLGDLKQLLSRLCGLLLEEGSHPGAPAKPVDLAPVEAPGPLAPVPSTVCPLRRKLWQNYRNLTFDPVSANRHFYLSRQDQQVKHCRQSRGPGGPGSFELWQVQCAQSFQAGHHYWEVRASDHSVTLGVSYPQLPRCRLGPHTDNIGRGPCSWGLCVQEDSLQAWHNGEAQRLPGVSGRLLGMDLDLASGCLTFYSLEPQTQPLYTFHALFNQPLTPVFWLLEGRTLTLCHQPGAVFPLGPQEEVLS
Consider B1, for which the binding entry is given as “no binding”.

B2: MBP-TRIM56 (natural protein, human, UniProt Q9BRZ2 1-755, looked up)
chain: MVSHGSSPSLLEALSSDFLACKICLEQLRAPKTLPCLHTYCQDCLAQLADGGRVRCPECRETVPVPPEGVASFKTNFFVNGLLDLVKARACGDLRAGKPACALCPLVGGTSTGGPATARCLDCADDLCQACADGHRCTRQTHTHRVVDLVGYRAGWYDEEARERQAAQCPQHPGEALRFLCQPCSQLLCRECRLDPHLDHPCLPLAEAVRARRPGLEGLLAGVDNNLVELEAARRVEKEALARLREQAARVGTQVEEAAEGVLRALLAQKQEVLGQLRAHVEAAEEAARERLAELEGREQVARAAAAFARRVLSLGREAEILSLEGAIAQRLRQLQGCPWAPGPAPCLLPQLELHPGLLDKNCHLLRLSFEEQQPQKDGGKDGAGTQGGEESQSRREDEPKTERQGGVQPQAGDGAQTPKEEKAQTTREEGAQTLEEDRAQTPHEDGGPQPHRGGRPNKKKKFKGRLKSISREPSPALGPNLDGSGLLPRPIFYCSFPTRMPGDKRSPRITGLCPFGPREILVADEQNRALKRFSLNGDYKGTVPVPEGCSPCSVAALQSAVAFSASARLYLINPNGEVQWRRALSLSQASHAVAALPSGDRVAVSVAGHVEVYNMEGSLATRFIPGGKASRGLRALVFLTTSPQGHFVGSDWQQNSVVICDGLGQVVGEYKGPGLHGCQPGSVSVDKKGYIFLTLREVNKVVILDPKGSLLGDFLTAYHGLEKPRVTTMVDGRYLVVSLSNGTIHIFRVRSPDS
notes: TRIM56, human, full length, in pMAL-C2X; also called recombinant TRIM56; not shown: MBP, N-terminal, kept
As for B2, the binding entry is given as “no binding”.
